Measured values published in article PMC7617541.
No constants are given. Whether binding was seen depends on the method and setting. Binding seen in cells or lysates may run through a third protein. These calls come from enrichment with a bait or labelling near it, and not all partners need be listed. Sequences can lack the tags named with a protein.

Molecular target: T1, FL-pOTC-TST (full-length precursor of human ornithine transcarbamylase with a C-terminal twin-strep tag) (human) (UniProt P00480)
T1 sequence: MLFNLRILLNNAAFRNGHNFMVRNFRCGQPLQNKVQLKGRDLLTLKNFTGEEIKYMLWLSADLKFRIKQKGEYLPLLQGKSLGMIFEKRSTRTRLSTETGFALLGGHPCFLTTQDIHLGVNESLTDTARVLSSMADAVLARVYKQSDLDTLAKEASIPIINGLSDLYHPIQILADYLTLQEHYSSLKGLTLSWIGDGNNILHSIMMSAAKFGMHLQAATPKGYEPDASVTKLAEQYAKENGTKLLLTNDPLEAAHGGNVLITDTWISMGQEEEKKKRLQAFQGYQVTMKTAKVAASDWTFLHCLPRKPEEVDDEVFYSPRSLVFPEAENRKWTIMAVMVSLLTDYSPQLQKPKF
Test: affinity purification with mass spectrometry; pOTC-TST translated in rabbit reticulocyte lysate (1 ml), purified under native conditions on StrepTactin resin via the TST; SDS-PAGE (SYPRO Ruby) and on-bead trypsin digestion with LC/MS-MS; GFP-TST as negative control

- binding: binds
B1: St13 (also known as Hip; rabbit reticulocyte lysate) (protein, UniProt G1SXL3 1-369)
chain: MDPRKVNELRAFVKLCKQDPSVLHTEEMRFLREWVESMGGKVPPATHKAKPEENIKEEKTDSKKAEETIQTDEPSSEESDLEIDNEGVIEPDTDAPQEMGDENVEITEEMMDQANEKKGAAIEALNDGELQKAIDLFTDAIKLNPRLAILYAKRASVFVKLQKPNAAIRDCDRAIDINPDSAQPYKWRGKAHRLLGHWEEAAHDLALACKLDYDEDASAVLKEVQPRAQKIAEHRRKYERKREEREIKERMERVKKAREEHERAQREEEARRQSGAQYGSFPGGFPGGMPGNFPGGMPGMGGAMPGMAGMPGLNEILSDPEVLAAMQDPEVMVAFQDVAQNPANMSKYQSNPKVMNLISKLSAKFGGQA
